Source: PMC3738441

The chains behind the UniProt entries cited, without tags or fusion partners. Where a name states a change or a piece, a line headed by the entry shows the natural chain unless it says otherwise.
UniProt O94656: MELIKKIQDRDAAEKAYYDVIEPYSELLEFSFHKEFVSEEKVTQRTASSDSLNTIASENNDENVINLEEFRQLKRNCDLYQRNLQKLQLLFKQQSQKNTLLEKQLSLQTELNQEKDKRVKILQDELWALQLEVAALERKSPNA

Biological target: Atg16-YFP (S. pombe) (UniProt O94656)
Experiment: co-IP; S. pombe cell lysates made by glass bead beating; GFP-trap or RFP-trap agarose beads to precipitate YFP- or mCherry-tagged proteins; Atg5-Atg16 tested in wild-type, atg12Δ and atg18aΔ cells

B1: Atg5-Myc (protein, UniProt O74971 1-261)
chain: MNVDNNKGNIPELLWNGTISVRIDYEGNSLAYLANVPRQSYFAQILPNVQRLLAPSIPLSECWLDYNGVPLKWHWPVGLLFDLLTVFDPDTPRAPVLWRIQLRSGLFPTTKILQMETMDTFRTYFFNCLKESDYVRNGSSSGIIALSKAETDTYWNAILNHDYYDFRPIAIKILFSKSKFIPLKIYLGANAPIIQTSAPLGSSLGEFLNKRLPDLFPSCDKFLIVKPVIHGITIFLQSVLDELNRDFCYIDGFLHIVLMKV
- binding: binds

No constants are given. Whether binding was seen depends on the method and setting. Binding seen in cells or lysates may run through a third protein. Binding can be weak; no strength is given. Sequences can lack the tags named with a protein.
